# From PubChem BioAssay AID1671190 (National Center for Advancing Translational Sciences (NCATS), 2021)
# Chains of the proteins cited; added tags and fusions are not shown. Lines headed by an entry give the natural chain unless they say otherwise; changes in a name come on top.
# UniProt P18054: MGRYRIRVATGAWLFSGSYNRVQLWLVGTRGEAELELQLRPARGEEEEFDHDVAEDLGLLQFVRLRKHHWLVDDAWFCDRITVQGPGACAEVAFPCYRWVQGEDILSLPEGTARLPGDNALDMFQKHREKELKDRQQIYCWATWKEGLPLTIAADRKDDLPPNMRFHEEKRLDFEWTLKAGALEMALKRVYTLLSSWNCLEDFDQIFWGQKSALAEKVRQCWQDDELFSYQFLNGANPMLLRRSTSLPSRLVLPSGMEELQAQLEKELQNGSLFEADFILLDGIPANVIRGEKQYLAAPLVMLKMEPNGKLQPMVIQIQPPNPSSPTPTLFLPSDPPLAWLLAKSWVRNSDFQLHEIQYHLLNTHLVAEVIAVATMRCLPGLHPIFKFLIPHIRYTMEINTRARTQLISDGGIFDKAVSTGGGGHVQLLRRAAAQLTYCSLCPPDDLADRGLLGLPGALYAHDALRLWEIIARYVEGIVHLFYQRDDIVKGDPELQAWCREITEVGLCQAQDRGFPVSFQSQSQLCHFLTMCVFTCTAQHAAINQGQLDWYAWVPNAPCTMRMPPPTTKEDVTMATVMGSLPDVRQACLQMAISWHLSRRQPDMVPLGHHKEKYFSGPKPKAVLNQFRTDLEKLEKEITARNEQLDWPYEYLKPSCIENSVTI
# Several values for one entry are separate records, joined by “and”; a condition that tells them apart may be missing. Equal values may be shown once. The campaign covered roughly 580,000 compounds. About 6,100 (1.1%) were called active. The shares of active, inactive and inconclusive entries below differ from those in the screen. Calls come from the whole dose curve; as a rule, active = well fitted inhibition curve with a large enough effect; inconclusive = small, poorly fitted or top-dose-only effect, or another doubt; inactive = no such curve, though single readings can be large or run the other way. Where the call is inconclusive, the potency comes from a doubtful curve fit.
# Target: Polyunsaturated fatty acid lipoxygenase ALOX12 (Homo sapiens) (UniProt P18054)
# Test: Primary qHTS assay for inhibitors of human arachidonate 12S-lipoxygenase (ALOX12): Round 2
# Conditions: purified 12hLO, xylenol orange hydroperoxide absorbance; series mostly up to 108 µM
# Method in brief: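 Purified human 12hLO (150 nM final) in 25 mM Hepes, 0.01% Triton X-100, pH 7.0 was preincubated 15 min at room temperature with compound. Then 40 uM arachidonic acid was added, 30 min. Hydroperoxide was read by Fe-XO absorbance ratio 573/405 nm.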
# Potency is the fitted concentration of half-maximal effect.
row,Compound,Potency
1,Cc1[nH]c2ccccc2c1C(C#N)(C#N)C1C(=O)c2ccccc2C1=O,"inconclusive: 50.1 µM [inhibitor, partial curve, poor fit]"
2,O=C1NC(=O)c2cc(NC(=O)C3CCCO3)ccc21 (configuration not stated),"inconclusive: 44.7 µM [inhibitor, partial curve, poor fit]"
3,CC1CCCN1c1ncnc2c1CN(C1CCCNCC1)C(=O)CN2C (configuration not stated),"inconclusive: 5.62 µM [inhibitor, full curve, poor fit]"
4,COc1ccc(S(=O)(=O)N2CC[C@H]3NC(=O)N(Cc4ccccc4)C(=O)[C@H]32)cc1,inactive
5,O=C(COc1ccc(F)c(Cl)c1)N1CCN(c2ccccn2)CC1,"inconclusive: 50.1 µM [inhibitor, partial curve, poor fit]"
6,Cc1ccccc1CNC(=O)c1ccc2sc([C@H]3C[C@H](O)[C@@H](CO)O3)nc2c1,"inconclusive: 5.62 µM [inhibitor, partial curve, poor fit]"
7,COCCn1ncc(N2CCCC(CC(=O)N3CC=C(c4ccccc4)CC3)C2)cc1=O (configuration not stated),inactive
8,Cc1ccc(C2CC(=O)N(c3ccc(F)cc3)C3=C2C(=O)CCC3)cc1 (configuration not stated),"inconclusive: 50.1 µM [inhibitor, single point]"
9,COc1ccc(NC(=O)CCc2sc(C)nc2-c2cccs2)cc1OC,"inconclusive: 35.5 µM [inhibitor, partial curve, poor fit]"
10,Cc1noc(CC2CCOC3(CCN(C(=O)c4cc(-c5ccc(F)cc5)n[nH]4)CC3)C2)n1 (configuration not stated),inactive
11,Cc1cccc(C(C)C)c1NC(=O)C(C)OC(=O)Cc1n[nH]c(=O)c2ccccc12 (configuration not stated),"inconclusive: 89.1 µM [inhibitor, single point]"
12,CC1=C(C)CC(C(=O)NCc2ccccn2)C(C(=O)O)C1 (configuration not stated),"inconclusive: 0.891 µM [inhibitor, partial curve, poor fit]"
13,Oc1ccc(-n2nnnc2SCc2cc(Cl)c3c(c2)OCCCO3)cc1,"inconclusive: 79.4 µM [inhibitor, partial curve, poor fit]"
14,O=C(NC(=S)Nc1ccccc1C(=O)O)c1ccc(-c2ccc(Br)cc2)o1,active: 10 µM
15,C=Cc1cccc(CN2CCCC3(CCNC3)C2)c1 (configuration not stated),"inconclusive: 28.2 µM [inhibitor, partial curve]"
16,Cc1ccc(NC(=S)/N=C(\N)Nc2nc(C)c3ccccc3n2)cc1C,"inconclusive: 44.7 µM [inhibitor, partial curve, poor fit]"
17,CCSc1nnc(Cc2cc(=O)[nH]c(=O)[nH]2)n1-c1ccc(F)cc1,"inconclusive: 39.8 µM [inhibitor, partial curve, poor fit]"
18,Cc1ccc(S(=O)(=O)NCCc2nnc3ccc(SCc4ccc(F)cc4)nn23)cc1,inactive
19,O=C(CN1CCN(C2CCCCC2)CC1)Nc1ccccc1N1CCCCC1,"inconclusive: 4.47 µM [inhibitor, full curve, poor fit]"
20,Cn1cccc1CN1CCCN(S(C)(=O)=O)C(c2ccccc2)CC(=O)NCC1 (configuration not stated),inactive
21,COCCCN1C(=O)C(O)=C(C(C)=O)C1c1ccccn1 (configuration not stated),"inconclusive: 15.8 µM [inhibitor, partial curve, poor fit]"
22,Cc1cc(F)ccc1NC(=O)c1ccc2nc(Cc3ccccc3)oc2c1,"inconclusive: 28.2 µM [inhibitor, full curve, poor fit]"
23,CCCNC(=O)C1(C)CCCN(Cc2cc3ccccc3o2)C1 (configuration not stated),inactive

# In another format: three of the compounds above
row	Compound	Potency
15	C=Cc1cccc(CN2CCCC3(CCNC3)C2)c1 (configuration not stated)	inconclusive: 28.2 µM [inhibitor, partial curve]
16	Cc1ccc(NC(=S)/N=C(\N)Nc2nc(C)c3ccccc3n2)cc1C	inconclusive: 44.7 µM [inhibitor, partial curve, poor fit]
17	CCSc1nnc(Cc2cc(=O)[nH]c(=O)[nH]2)n1-c1ccc(F)cc1	inconclusive: 39.8 µM [inhibitor, partial curve, poor fit]

# The listing continues:

row,Compound,Potency
1,CCOC(=O)CN=C1CC(C)(C)CC2=C1Sc1ncnc(N(C)C)c1N2,"inconclusive: 11.2 µM [inhibitor, full curve, poor fit]"
2,CCCC(=O)c1ccc2c(c1)OCCO2,inactive
3,COc1cc(C(=O)Nc2nnc(-c3sccc3C)s2)cc(OC)c1OC,inactive
4,O=C(O)CSC(=O)c1ccccc1Cl,"inconclusive: 1 µM [inhibitor, full curve, poor fit]"
5,COc1ccc2c(c1)C1=NN(/C(C)=C/C(C)=O)C(c3cccc(F)c3)C1CC2 (configuration not stated),inactive
6,Cc1ccc(C(=O)c2c(C)c(CCC#N)n3ccccc23)cc1C,"inconclusive: 2.51 µM [inhibitor, full curve, poor fit]"
7,COc1ccc(NC(=O)C(=O)c2c(C)n(C)c3ccccc23)cc1,"inconclusive: 141 µM [inhibitor, partial curve, poor fit]"
8,Cc1cc(C)cc(C(=O)N(C)C2CCCN(Cc3ccccc3F)C2)c1 (configuration not stated),"inconclusive: 126 µM [inhibitor, single point]"
9,CCc1nc2c(c(-c3ccc(Cl)cc3)n1)CCN(Cc1ccc(N(C)C)cc1)CC2,"inconclusive: 17.8 µM [inhibitor, full curve]"
10,CN1CCCN(Cc2cccc3ccccc23)CC1,"inconclusive: 0.447 µM [inhibitor, full curve, poor fit]"
11,Cc1ccc(C)c(N2CCN(C(=O)c3cc(S(=O)(=O)N4CCC(C)CC4)cn3C)CC2)c1,"inconclusive: 56.2 µM [inhibitor, partial curve, poor fit]"
12,C[N+]1(CC[N+]2(C)CCCCC2)CCCCC1,active: 3.98 µM
13,COc1ccc(COc2cccc(C=O)c2)cc1,inactive
14,CCOc1ccc(C2NC(=O)C(C#N)=C(S)N2c2cccc(C)c2)cc1OC (configuration not stated),inactive
15,Cc1ccccc1OC(=O)c1cccc(S(=O)(=O)N2CCN(C)CC2)c1,"inconclusive: 31.6 µM [inhibitor, partial curve, poor fit]"
16,CC(=O)N1CC(CO)C2(CCN(C(=O)Cc3ccccc3Cl)CC2)C1 (configuration not stated),"inconclusive: 5.01 µM [inhibitor, partial curve]"
17,CCCc1ccc(-c2cc(C(=O)O)c3ccccc3n2)cc1,"inconclusive: 44.7 µM [inhibitor, partial curve, poor fit]"
18,O=C1CSC(c2cccnc2)N1Cc1ccc(Cl)cc1 (configuration not stated),"inconclusive: 126 µM [inhibitor, single point]"
19,CC(OC(=O)C1CCC1)C(=O)NC(N)=O (configuration not stated),"inconclusive: 79.4 µM [inhibitor, partial curve, poor fit]"
20,Cc1cc(C)n(CC(=O)O)n1,inactive
21,Cc1nc(C)c(CC(=O)Nc2nnc(C)s2)c(=O)[nH]1,inactive
22,CC(C)NC(=O)N1CCC2(CC1)CC(N(C)Cc1ccccc1)CCO2 (configuration not stated),inactive
23,CC(C)c1ccc(C2C(C#N)=C(N)Oc3c2ccc2ccccc32)cc1 (configuration not stated),"inconclusive: 35.5 µM [inhibitor, single point]"

row,Compound,Potency
1,Clc1cccc(CNc2ccn3nc(-c4cccc(OCc5ccccc5)c4)cc3n2)c1,inactive
2,Cn1c(-c2ccccc2)cnc1NCc1cc(Cl)ccc1O,"inconclusive: 7.94 µM [inhibitor, full curve]"
3,Cc1ccc2c(CN3CCC(C)CC3)cc(=O)oc2c1,"inconclusive: 31.6 µM [inhibitor, partial curve, poor fit] and inconclusive: 44.7 µM [inhibitor, partial curve, poor fit]"
4,CCn1c(=NC(=O)c2cccc(N3C(=O)CCC3=O)c2)sc2c(C)ccc(OC)c21,"inconclusive: 17.8 µM [inhibitor, single point]"
5,O=c1[nH]c(COc2ccccc2)nc2ccccc12,inactive
6,NS(=O)(=O)c1ccc(N/N=C/c2ccc(O)c(O)c2O)c([N+](=O)[O-])c1,"inconclusive: 3.98 µM [inhibitor, full curve]"
7,Cc1cc(C)n2nc(SCC(=O)N(C)C3CCCCC3)nc2n1,inactive
8,CCC(C)NC(=O)c1[nH]c2cc(C)ccc2c1Sc1ccc(Cl)cc1 (configuration not stated),"inconclusive: 56.2 µM [inhibitor, full curve, poor fit]"
9,NS(=O)(=O)c1ccc(S(=O)(=O)N2CCN(C3CCCC3)CC2)cc1,"inconclusive: 56.2 µM [inhibitor, partial curve, poor fit]"
10,CC(Sc1nc(-c2ccccc2)c(-c2ccccc2)o1)C(=O)NC1CC1 (configuration not stated),inactive
11,COC(=O)c1c(C)[nH]c(/C=N/Nc2ccccc2)c1C,"inconclusive: 0.316 µM [inhibitor, full curve, poor fit]"
12,Cc1cc2oc(=O)cc(CN3CCc4ccccc43)c2cc1Cl,"inconclusive: 5.62 µM [inhibitor, partial curve, poor fit]"
13,COc1ccc2oc(=O)c(-c3cn4c(n3)sc3cc(F)ccc34)cc2c1,"inconclusive: 126 µM [inhibitor, single point]"
14,Cc1cc2c(cc1C)-n1nnnc1C(N(C)CCc1ccccc1)C(=O)N2 (configuration not stated),"inconclusive: 44.7 µM [inhibitor, partial curve, poor fit]"
15,Cc1ncccc1Oc1ncnc(N2CCCCC(N)C2)c1C (configuration not stated),"inconclusive: 11.2 µM [inhibitor, single point]"
16,O=C(NC(=S)Nc1ccc(N2CCCC2)cc1)c1ccc(F)cc1,"inconclusive: 8.91 µM [inhibitor, full curve, poor fit]"
17,Cc1nnc(N/N=C/c2ccc(-c3ccccc3F)o2)n1N,"inconclusive: 70.8 µM [inhibitor, partial curve, poor fit]"
18,NC(=O)Nc1sc(-c2ccc(F)cc2)cc1C(N)=O,"inconclusive: 39.8 µM [inhibitor, partial curve, poor fit]"
19,CCCCCOc1ccc(CSc2ncn[nH]2)cc1,"inconclusive: 126 µM [inhibitor, single point]"
20,CCCC(=O)N1CCc2cc(OC)c(OC)cc2C1c1cc2cc3c(cc2[nH]c1=O)OCO3 (configuration not stated),inactive
21,CCCS(=O)(=O)NC(=O)C1(C)CCN(C(=O)c2ccc(C(F)(F)F)cc2)C1 (configuration not stated),inactive
